The test system of the data set is CYPs–UGT1A1 KI-HepG2 cells. As to the method:
The HepG2 cells were seeded in 96-well plates at 1.0 × 10^4 cells/well. […] After 24 h, to examine the cell viability, we performed a WST-8 (2-(2-methoxy-4-nitrophenyl)-3-(4-nitrophenyl)-5-(2,4-disulfophenyl)-2H-tetrazolium, monosodium salt) assay by using Cell Count Reagent SF according to the manufacturer’s instructions. The cell viability was calculated as the percentage of that in the cells treated with a vehicle only.
After 24 h, cell viability was examined by WST-8 assay. The cell viability was calculated as a percentage of the number of cells after treatment with a solvent only. The results shown are means ± SD of three technical replicates.

The structures appear in SMILES notation.

Take `CCCCc1oc2ccccc2c1C(=O)c1cc(I)c(OCCN(CC)CC)c(I)c1` [amiodarone]: the “Cell viability of CYPs–UGT1A1 KI-HepG2 cells compared with WT-HepG2 cells” value is on record as “lower”.
